Some of the results follow. The main result of the screen is listed elsewhere. These columns were measured beside it and carry no call. Most of these compounds were active or inconclusive in the main read-out, so they are no random draw. Words in brackets tell the shape of the fitted curve; partial curves, single points and poor fits give uncertain potencies.
Experiment: qHTS Assay to Find Inhibitors of Chronic Active B-Cell Receptor Signaling
Settings: ABC-DLBCL IkBa-CBG/CBR reporter, luminescence ratio (green luciferase fused to IkBa over red control in TMD8 lymphoma cells), 4 h
In short: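 TMD8 ABC-DLBCL cells carrying doxycycline-inducible green luciferase fused to IkappaBalpha plus unfused red luciferase were exposed to compounds (up to 46 uM) for 4 hrs at 37C. Activity came from the overlap-corrected green/red luminescence ratio.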

[1] = measured here: CBR red luminescence, cell number
[2] = measured here: IkBa-CBG green luminescence

SMILES | AC50 [1] | AC50 [2]
CCN(CC)C(=O)Nc1c(C)n(C)n(-c2ccccc2)c1=O | 20.6 µM [rising, partial curve, poor fit] | 
CC[C@H]1CN2CCc3cc(OC)c(OC)cc3[C@@H]2C[C@@H]1C[C@H]1NCCc2cc(OC)c(OC)cc21 | 0.164 µM [falling, full curve] | 0.291 µM [rising, full curve]
O=C(Nc1ccncc1)c1ccc(-c2ccccc2)cc1 | 2.82 µM [falling, single point] | 
O=C(N/N=C/c1ccco1)C1CC1(c1ccccc1)c1ccccc1 (stereo not drawn) | 29.1 µM [falling, single point] | 23.1 µM [rising, partial curve, poor fit]
O=S(=O)(Nc1ccc(Cl)cn1)c1cnc(Cl)c(Br)c1 | 3.98 µM [rising, single point] | 
Cc1cc(C)n2cc(CSc3nnnn3-c3ccccc3)nc2n1 | 11.2 µM [falling, partial curve, poor fit] | 
CC1OC(O[C@H]2CC[C@]3(C)C4C=C[C@]56OC[C@@]7(CC[C@@H](C)[C@H](C)C75)[C@H](O)C[C@@]6(C)[C@]4(C)CC[C@H]3C2(C)C)C(OC2OC(CO)C(O)C(O)C2OC2OCC(O)C(O)C2O)C(O)C1O (stereo partly drawn) | 35.5 µM [falling, single point] | 31.6 µM [rising, partial curve, poor fit]
Cc1csc(NC(=O)c2cc3c(s2)CCCC3)n1 | 4.47 µM [falling, full curve, poor fit] | 
Oc1c(C=Nc2cccnc2)sc2ccccc12 | 9.2 µM [falling, partial curve] | 
O=c1[nH]c2ccccc2cc1CN(Cc1ccco1)S(=O)(=O)c1ccccc1 | 2.82 µM [falling, full curve, poor fit] | 
COc1ccc(C(=O)Nc2ccc([N+](=O)[O-])cn2)cc1OC | 23.1 µM [falling, single point] | 
COc1ccc(NC(=O)c2cc3c(-c4ccc(OC)c(OC)c4)nn(C)c3s2)cc1OC | 0.259 µM [rising, full curve, poor fit] | 
Cc1noc(NC(=O)c2cccc(Cl)c2Cl)c1C#N | 11.2 µM [rising, partial curve, poor fit] | 
COc1cc(OC)cc(C(=O)NC(C(=O)NCCN(C)C)C23CC4CC(CC(C4)C2)C3)c1 (stereo not drawn) | 1.78 µM [falling, partial curve, poor fit] | 
NNC(=O)CSc1nnc(-c2ccccc2)n1-c1ccccc1 | 11.2 µM [falling, partial curve, poor fit] | 
Cc1ccccc1OCCNC(=O)c1ccc2ccccc2n1 | 1.84 µM [rising, partial curve] | 
Cn1c(=O)c2c(SCC(=O)NCC3CCCO3)nc(-c3cccs3)nc2n(C)c1=O (stereo not drawn) | 0.00461 µM [falling, full curve, poor fit] | 
CCOC(=O)c1ccc(N2CCN(c3cccc(OC)c3)CC2)c(NC(=O)Nc2ccc(OCC)cc2)c1 | 0.708 µM [rising, full curve, poor fit] | 
CCCOc1ccccc1C1CC(=O)Nc2cc3c(cc21)OCO3 (stereo not drawn) |  | 16.4 µM [falling, partial curve]
COc1ccc(OCC(O)CNC(=O)c2cccs2)cc1 (stereo not drawn) | 12.6 µM [rising, partial curve, poor fit] | 
CCn1c(SCC(=O)Nc2ccc(OCc3ccccc3)cc2)nnc1-c1ccco1 | 35.5 µM [falling, single point] | 
C/C(=N\N=C1/NC(=O)C(C)S1)c1ccc([N+](=O)[O-])cc1 (stereo not drawn) | 14.6 µM [rising, partial curve] | 
CCOc1cccc(NC(=O)/C(C#N)=C\c2cn(CC(=O)O)c3ccccc23)c1 | 2.82 µM [falling, partial curve, poor fit] | 
COc1cc(C(C)=O)ccc1OCCN1CCC(Cc2ccccc2)CC1 | 10 µM [falling, partial curve, poor fit] | 
COc1ccc(/C=N/NC(=O)c2cccnc2)cc1CSc1ccccn1 | 3.16 µM [falling, full curve, poor fit] | 
Cc1noc(NS(=O)(=O)c2ccc(NC(=O)/C=C/c3ccc(Br)cc3)cc2)c1C | 10 µM [falling, partial curve, poor fit] | 
S=C(NC1CCCCC1)N1CCOCCOCCN(C(=S)NC2CCCCC2)CCOCC1 | 35.5 µM [falling, single point] | 
O=C(O)c1cccc(-c2ccc(/C=N/NC(=O)C3COc4ccccc4O3)o2)c1 (stereo not drawn) | 35.5 µM [falling, single point] | 6.31 µM [rising, partial curve, poor fit]
O=C(c1ccccc1)c1cccc(NC(=O)c2ccc(Br)o2)c1 | 29.1 µM [falling, single point] | 

As a short view, some entries already given:
SMILES | AC50 [1] | AC50 [2]
COc1cc(C(C)=O)ccc1OCCN1CCC(Cc2ccccc2)CC1 | 10 µM [falling, partial curve, poor fit] | 
COc1ccc(/C=N/NC(=O)c2cccnc2)cc1CSc1ccccn1 | 3.16 µM [falling, full curve, poor fit] | 
